Test results taken from publication PMC11920242.
These are yes or no findings as the source states them, for the method shown. Binding seen in cells or lysates may run through a third protein. Some entries that bind do so weakly or less than the wild type. Where a sequence is shown, tags or fusion partners need not be part of it.

Target: T1, Flag-tagged SH2B3 WT (human), Q9UQQ2
T1 chain: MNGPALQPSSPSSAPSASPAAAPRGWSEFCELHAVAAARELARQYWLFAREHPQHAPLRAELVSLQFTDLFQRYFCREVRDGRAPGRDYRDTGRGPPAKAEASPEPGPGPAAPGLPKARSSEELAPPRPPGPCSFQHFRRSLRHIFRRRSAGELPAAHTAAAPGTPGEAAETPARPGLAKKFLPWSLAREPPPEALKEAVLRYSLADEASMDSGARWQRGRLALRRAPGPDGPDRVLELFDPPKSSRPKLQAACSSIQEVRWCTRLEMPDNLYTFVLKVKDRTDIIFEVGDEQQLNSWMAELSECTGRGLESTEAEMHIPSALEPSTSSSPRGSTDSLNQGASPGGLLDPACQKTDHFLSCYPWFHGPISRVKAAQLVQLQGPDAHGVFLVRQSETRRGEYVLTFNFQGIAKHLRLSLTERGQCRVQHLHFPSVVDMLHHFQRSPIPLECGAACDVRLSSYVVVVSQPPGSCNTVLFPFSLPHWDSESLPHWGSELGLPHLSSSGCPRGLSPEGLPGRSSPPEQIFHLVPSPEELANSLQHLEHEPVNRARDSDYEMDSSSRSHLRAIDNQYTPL
Test: co-IP; HEK293T co-transfected with HA-JAK2 and Flag-SH2B3 WT or variants; 100 ng/mL IFNγ for 48 h; RIPA lysis; anti-Flag M2 affinity gel at 4 °C overnight; immunoblot
Conditions: remark: other sources report otherwise

- binding: binds
B1: HA-tagged JAK2, O60674 1-1132 (enzyme)
chain: MGMACLTMTEMEGTSTSSIYQNGDISGNANSMKQIDPVLQVYLYHSLGKSEADYLTFPSGEYVAEEICIAASKACGITPVYHNMFALMSETERIWYPPNHVFHIDESTRHNVLYRIRFYFPRWYCSGSNRAYRHGISRGAEAPLLDDFVMSYLFAQWRHDFVHGWIKVPVTHETQEECLGMAVLDMMRIAKENDQTPLAIYNSISYKTFLPKCIRAKIQDYHILTRKRIRYRFRRFIQQFSQCKATARNLKLKYLINLETLQSAFYTEKFEVKEPGSGPSGEEIFATIIITGNGGIQWSRGKHKESETLTEQDLQLYCDFPNIIDVSIKQANQEGSNESRVVTIHKQDGKNLEIELSSLREALSFVSLIDGYYRLTADAHHYLCKEVAPPAVLENIQSNCHGPISMDFAISKLKKAGNQTGLYVLRCSPKDFNKYFLTFAVERENVIEYKHCLITKNENEEYNLSGTKKNFSSLKDLLNCYQMETVRSDNIIFQFTKCCPPKPKDKSNLLVFRTNGVSDVPTSPTLQRPTHMNQMVFHKIRNEDLIFNESLGQGTFTKIFKGVRREVGDYGQLHETEVLLKVLDKAHRNYSESFFEAASMMSKLSHKHLVLNYGVCVCGDENILVQEFVKFGSLDTYLKKNKNCINILWKLEVAKQLAWAMHFLEENTLIHGNVCAKNILLIREEDRKTGNPPFIKLSDPGISITVLPKDILQERIPWVPPECIENPKNLNLATDKWSFGTTLWEICSGGDKPLSALDSQRKLQFYEDRHQLPAPKWAELANLINNCMDYEPDFRPSFRAIIRDLNSLFTPDYELLTENDMLPNMRIGALGFSGAFEDRDPTQFEERHLKFLQQLGKGNFGSVEMCRYDPLQDNTGEVVAVKKLQHSTEEHLRDFEREIEILKSLQHDNIVKYKGVCYSAGRRNLKLIMEYLPYGSLRDYLQKHKERIDHIKLLQYTSQICKGMEYLGTKRYIHRDLATRNILVENENRVKIGDFGLTKVLPQDKEYYKVKEPGESPIFWYAPESLTESKFSVASDVWSFGVVLYELFTYIEKSKSPPAEFMRMIGNDKQGQMIVFHLIELLKNNGRLPRPDGCPDEIYMIMTECWNNNVNQRPSFRDLALRVDQIRDNMAG
